The record followed here is publication PMC4225516.

In experiment [1] the target is T1, mouse acrosome and sperm tail protein (MAST) (mouse (endogenous in testis)) (UniProt Q7TPM5).
T1 sequence: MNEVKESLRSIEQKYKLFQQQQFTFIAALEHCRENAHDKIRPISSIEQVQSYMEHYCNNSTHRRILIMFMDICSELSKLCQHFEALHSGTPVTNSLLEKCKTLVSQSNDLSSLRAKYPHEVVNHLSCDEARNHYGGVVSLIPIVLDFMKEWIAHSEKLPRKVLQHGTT
As to the kind of experiment: co-IP; antibody cross-linked (DSS) to protein A/G plus agarose (Pierce cross link IP kit); pre-cleared mouse testis lysate, 1-2 h or overnight at 4°C; eluate probed by western blot. Background: In western blotting, separated proteins are transferred to a membrane and probed.

Experiment [2] concerns the target caldendrin (mouse (endogenous in testis)). The experiment is described as above.

Results are given in words; binding and its absence hold for the method and conditions named. In cells and extracts the contact can be indirect. A result given as binding can be weak or reduced; the word gives no strength.

On to “caldendrin (mouse (endogenous in testis))”, for which the binding entry in experiment [1] was “binds”.

B1: mouse acrosome and sperm tail protein (MAST) (protein, UniProt Q7TPM5 1-168)
chain: T1 sequence
Take B1: the binding entry in experiment [2] was “binds”.
